{"source": "PubChem BioAssay AID602196 | INSERM | 2012", "purpose": "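Knock-downs that protect lung cancer cells from cisplatin or sensitise them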", "system": "human A549 lung cancer cells", "reagents": "siRNA pair against human genes", "time to read-out": "48 h transfection before cisplatin; time from cisplatin to read-out not stated", "treatment": "cisplatin at a dose killing half of control-siRNA cells; exact dose and duration not given", "read-out": "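Shift in cisplatin death relative to control siRNA, from -50 (all cells die) to +50 (no cells die); siRNAs harmful on their own scored 0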", "reading the numbers": "two-siRNA summed score (-2 to +2): higher = both siRNAs protect from cisplatin killing; -2 means both sensitise", "call rule": "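siRNAs harmful alone (LDH or WST-1) get 0; others get +1 for less and -1 for more cisplatin killing; genes are active when the two siRNAs give the same sign, summing to ±2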", "calls": "active = both siRNAs shift cisplatin killing the same way; inactive = no consistent shift, or siRNA harmful alone", "note": "The whole screen tested about 23,000 reagents; shown is a random part of them. In the full data, 455 (2%) are marked active. 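Active includes both protection and sensitisation; some change values fall well beyond the stated -50 to +50 range.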 Not all columns of the deposit are shown. Reagent sequences are not shown. The record does not give: the amount of reagent."}
{"gene": "ZNFX1 (GeneID 57169)", "PubChem SID": "SID131505569", "two-siRNA summed score (-2 to +2)": 0, "activity call": "inactive"}
{"gene": "AGBL4 (GeneID 84871)", "PubChem SID": "SID131519410", "two-siRNA summed score (-2 to +2)": 1, "activity call": "inactive"}
{"gene": "MCF2L2 (GeneID 23101)", "PubChem SID": "SID131512186", "two-siRNA summed score (-2 to +2)": 0, "activity call": "inactive"}
{"gene": "HPS4 (GeneID 89781)", "PubChem SID": "SID131512679", "two-siRNA summed score (-2 to +2)": 0, "activity call": "inactive"}
{"gene": "TLX1 (GeneID 3195)", "PubChem SID": "SID131514443", "two-siRNA summed score (-2 to +2)": 0, "activity call": "inactive"}
{"gene": "DGLUCY (GeneID 80017)", "PubChem SID": "SID131506867", "two-siRNA summed score (-2 to +2)": 0, "activity call": "inactive"}
{"gene": "LOC442050", "PubChem SID": "SID131516713", "two-siRNA summed score (-2 to +2)": 0, "activity call": "inactive"}
{"gene": "ARL15 (GeneID 54622)", "PubChem SID": "SID131514658", "two-siRNA summed score (-2 to +2)": 0, "activity call": "inactive"}
{"gene": "TRUB1 (GeneID 142940)", "PubChem SID": "SID131519262", "two-siRNA summed score (-2 to +2)": 1, "activity call": "inactive"}
{"gene": "LGI4 (GeneID 163175)", "PubChem SID": "SID131505757", "two-siRNA summed score (-2 to +2)": 0, "activity call": "inactive"}
{"gene": "ADRA1D (GeneID 146)", "PubChem SID": "SID131500829", "two-siRNA summed score (-2 to +2)": -1, "activity call": "inactive"}
{"gene": "PTH1R (GeneID 5745)", "PubChem SID": "SID131509036", "two-siRNA summed score (-2 to +2)": 0, "activity call": "inactive"}
{"gene": "EIF2S3 (GeneID 1968)", "PubChem SID": "SID131509256", "two-siRNA summed score (-2 to +2)": 0, "activity call": "inactive"}
{"gene": "CFDP1 (GeneID 10428)", "PubChem SID": "SID131523111", "two-siRNA summed score (-2 to +2)": 2, "activity call": "active"}
{"gene": "LOC442181", "PubChem SID": "SID131519858", "two-siRNA summed score (-2 to +2)": 1, "activity call": "inactive"}
{"gene": "HSPB8 (GeneID 26353)", "PubChem SID": "SID131500994", "two-siRNA summed score (-2 to +2)": -1, "activity call": "inactive"}
{"gene": "BST2 (GeneID 684)", "PubChem SID": "SID131505997", "two-siRNA summed score (-2 to +2)": 0, "activity call": "inactive"}
{"gene": "LOC196752", "PubChem SID": "SID131516921", "two-siRNA summed score (-2 to +2)": 0, "activity call": "inactive"}
{"gene": "BCRP2 (GeneID 400892)", "PubChem SID": "SID131502596", "two-siRNA summed score (-2 to +2)": -1, "activity call": "inactive"}
{"gene": "HMFN0672", "PubChem SID": "SID131512055", "two-siRNA summed score (-2 to +2)": 0, "activity call": "inactive"}
{"gene": "LOC390738", "PubChem SID": "SID131520305", "two-siRNA summed score (-2 to +2)": 1, "activity call": "inactive"}
{"gene": "AP1S3 (GeneID 130340)", "PubChem SID": "SID131513944", "two-siRNA summed score (-2 to +2)": 0, "activity call": "inactive"}
{"gene": "MTRR (GeneID 4552)", "PubChem SID": "SID131519420", "two-siRNA summed score (-2 to +2)": 1, "activity call": "inactive"}
{"gene": "LMNTD2 (GeneID 256329)", "PubChem SID": "SID131502770", "two-siRNA summed score (-2 to +2)": -1, "activity call": "inactive"}
{"gene": "LOC391054", "PubChem SID": "SID131512733", "two-siRNA summed score (-2 to +2)": 0, "activity call": "inactive"}
{"gene": "SLC31A2 (GeneID 1318)", "PubChem SID": "SID131514384", "two-siRNA summed score (-2 to +2)": 0, "activity call": "inactive"}
{"gene": "SNRNP27 (GeneID 11017)", "PubChem SID": "SID131519354", "two-siRNA summed score (-2 to +2)": 1, "activity call": "inactive"}
{"gene": "SELENOM (GeneID 140606)", "PubChem SID": "SID131520109", "two-siRNA summed score (-2 to +2)": 1, "activity call": "inactive"}
{"gene": "NPY4R (GeneID 5540)", "PubChem SID": "SID131514848", "two-siRNA summed score (-2 to +2)": 0, "activity call": "inactive"}
{"gene": "ADNP2 (GeneID 22850)", "PubChem SID": "SID131521109", "two-siRNA summed score (-2 to +2)": 1, "activity call": "inactive"}
{"gene": "RLBP1 (GeneID 6017)", "PubChem SID": "SID131522632", "two-siRNA summed score (-2 to +2)": 1, "activity call": "inactive"}

Part of the list above in another layout.
HMFN0672 [SID131512055]
- two-siRNA summed score (-2 to +2): 0
- activity call: inactive

LOC390738 [SID131520305]
- two-siRNA summed score (-2 to +2): 1
- activity call: inactive
